Experimental data taken from article PMC11164484.

By UniProt entry, the sequences of proteins in these tests, tags left out. Residues count along the entry.
UniProt P01833, residues 19-764: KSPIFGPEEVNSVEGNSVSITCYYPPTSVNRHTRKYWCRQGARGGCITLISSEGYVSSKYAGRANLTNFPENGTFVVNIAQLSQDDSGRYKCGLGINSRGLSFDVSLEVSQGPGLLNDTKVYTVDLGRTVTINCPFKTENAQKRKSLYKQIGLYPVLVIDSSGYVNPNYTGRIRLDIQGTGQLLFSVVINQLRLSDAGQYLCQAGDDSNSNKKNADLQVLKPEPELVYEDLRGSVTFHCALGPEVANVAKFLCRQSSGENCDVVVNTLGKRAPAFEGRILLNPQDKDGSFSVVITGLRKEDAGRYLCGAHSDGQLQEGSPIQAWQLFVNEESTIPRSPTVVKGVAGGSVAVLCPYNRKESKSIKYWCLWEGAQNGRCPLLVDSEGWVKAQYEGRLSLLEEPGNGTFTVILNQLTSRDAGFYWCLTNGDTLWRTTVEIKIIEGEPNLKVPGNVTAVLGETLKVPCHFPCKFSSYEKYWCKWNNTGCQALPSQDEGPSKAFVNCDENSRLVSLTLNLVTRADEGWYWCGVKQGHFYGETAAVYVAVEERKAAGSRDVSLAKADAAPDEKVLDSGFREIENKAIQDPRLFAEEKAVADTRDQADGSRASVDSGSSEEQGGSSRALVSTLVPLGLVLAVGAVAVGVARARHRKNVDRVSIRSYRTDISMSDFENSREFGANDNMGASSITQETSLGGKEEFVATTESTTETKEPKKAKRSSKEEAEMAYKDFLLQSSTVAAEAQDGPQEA
UniProt P15924: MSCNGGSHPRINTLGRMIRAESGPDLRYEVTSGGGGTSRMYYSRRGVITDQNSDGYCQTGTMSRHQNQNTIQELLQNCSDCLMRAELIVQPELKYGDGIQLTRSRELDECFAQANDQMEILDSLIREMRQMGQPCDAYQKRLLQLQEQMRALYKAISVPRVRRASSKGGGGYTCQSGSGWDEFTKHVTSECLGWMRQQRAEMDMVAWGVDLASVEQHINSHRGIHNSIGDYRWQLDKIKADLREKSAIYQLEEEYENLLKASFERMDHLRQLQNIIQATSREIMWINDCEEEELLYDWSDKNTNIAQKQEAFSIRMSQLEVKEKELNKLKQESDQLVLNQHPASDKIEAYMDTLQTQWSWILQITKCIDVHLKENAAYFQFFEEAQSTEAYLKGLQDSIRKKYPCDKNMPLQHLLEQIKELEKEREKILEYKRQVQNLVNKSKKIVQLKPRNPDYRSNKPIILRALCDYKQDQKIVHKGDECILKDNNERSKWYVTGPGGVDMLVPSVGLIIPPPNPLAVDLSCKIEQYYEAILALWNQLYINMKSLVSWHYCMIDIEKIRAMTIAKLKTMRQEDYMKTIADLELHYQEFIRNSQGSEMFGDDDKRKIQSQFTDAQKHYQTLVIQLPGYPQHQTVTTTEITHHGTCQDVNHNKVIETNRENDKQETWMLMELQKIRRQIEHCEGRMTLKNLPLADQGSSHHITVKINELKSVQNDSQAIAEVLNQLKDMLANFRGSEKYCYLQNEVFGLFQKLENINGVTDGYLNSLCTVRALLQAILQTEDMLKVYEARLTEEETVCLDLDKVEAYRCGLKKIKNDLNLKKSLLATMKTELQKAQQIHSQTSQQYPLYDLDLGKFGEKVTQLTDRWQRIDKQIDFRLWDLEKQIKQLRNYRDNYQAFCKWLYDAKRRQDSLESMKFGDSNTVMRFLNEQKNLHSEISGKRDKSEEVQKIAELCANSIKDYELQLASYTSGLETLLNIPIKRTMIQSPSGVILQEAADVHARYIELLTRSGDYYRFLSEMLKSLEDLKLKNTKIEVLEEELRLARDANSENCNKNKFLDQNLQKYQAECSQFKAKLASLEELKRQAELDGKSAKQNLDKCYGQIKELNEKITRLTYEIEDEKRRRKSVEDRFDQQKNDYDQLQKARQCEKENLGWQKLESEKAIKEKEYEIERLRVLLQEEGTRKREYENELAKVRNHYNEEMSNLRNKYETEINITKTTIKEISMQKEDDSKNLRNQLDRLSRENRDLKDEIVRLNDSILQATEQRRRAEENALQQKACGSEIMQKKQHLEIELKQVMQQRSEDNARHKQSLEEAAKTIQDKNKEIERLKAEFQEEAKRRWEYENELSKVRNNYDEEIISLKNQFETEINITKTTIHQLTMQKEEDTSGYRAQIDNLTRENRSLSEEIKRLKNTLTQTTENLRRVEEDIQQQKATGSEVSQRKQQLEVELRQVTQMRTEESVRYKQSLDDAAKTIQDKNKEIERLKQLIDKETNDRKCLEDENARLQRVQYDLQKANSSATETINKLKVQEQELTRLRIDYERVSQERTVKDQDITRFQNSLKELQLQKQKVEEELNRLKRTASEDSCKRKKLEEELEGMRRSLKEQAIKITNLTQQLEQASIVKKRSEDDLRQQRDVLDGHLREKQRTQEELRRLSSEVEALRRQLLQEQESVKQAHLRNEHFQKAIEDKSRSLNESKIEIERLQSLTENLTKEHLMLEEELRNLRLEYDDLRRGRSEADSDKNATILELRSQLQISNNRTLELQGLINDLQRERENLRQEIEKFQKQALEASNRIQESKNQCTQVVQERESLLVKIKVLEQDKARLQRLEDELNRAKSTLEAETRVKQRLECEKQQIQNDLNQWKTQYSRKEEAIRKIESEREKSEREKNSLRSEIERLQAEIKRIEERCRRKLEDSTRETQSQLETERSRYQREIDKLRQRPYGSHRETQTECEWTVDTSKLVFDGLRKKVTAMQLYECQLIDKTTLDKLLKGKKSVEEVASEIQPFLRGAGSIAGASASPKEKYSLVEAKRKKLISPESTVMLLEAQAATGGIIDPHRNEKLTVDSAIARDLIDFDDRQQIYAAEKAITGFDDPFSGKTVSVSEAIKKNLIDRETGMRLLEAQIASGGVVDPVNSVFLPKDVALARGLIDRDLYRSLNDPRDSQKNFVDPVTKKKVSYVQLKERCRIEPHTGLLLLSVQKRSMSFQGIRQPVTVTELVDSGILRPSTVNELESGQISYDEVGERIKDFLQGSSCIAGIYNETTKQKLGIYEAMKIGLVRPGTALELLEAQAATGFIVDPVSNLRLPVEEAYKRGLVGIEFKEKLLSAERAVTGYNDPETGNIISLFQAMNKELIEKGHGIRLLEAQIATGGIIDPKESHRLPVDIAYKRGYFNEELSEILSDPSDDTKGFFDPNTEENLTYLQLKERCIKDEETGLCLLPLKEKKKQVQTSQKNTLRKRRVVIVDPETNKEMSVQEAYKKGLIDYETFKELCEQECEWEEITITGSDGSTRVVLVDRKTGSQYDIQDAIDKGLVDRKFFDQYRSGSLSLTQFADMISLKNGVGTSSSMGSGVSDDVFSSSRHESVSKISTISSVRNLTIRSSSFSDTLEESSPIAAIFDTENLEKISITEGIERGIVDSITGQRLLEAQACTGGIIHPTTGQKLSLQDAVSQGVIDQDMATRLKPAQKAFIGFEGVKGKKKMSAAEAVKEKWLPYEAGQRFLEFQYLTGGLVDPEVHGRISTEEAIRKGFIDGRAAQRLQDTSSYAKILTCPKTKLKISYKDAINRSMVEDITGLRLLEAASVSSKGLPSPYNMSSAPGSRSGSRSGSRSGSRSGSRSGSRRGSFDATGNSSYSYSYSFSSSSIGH
UniProt Q9UP60: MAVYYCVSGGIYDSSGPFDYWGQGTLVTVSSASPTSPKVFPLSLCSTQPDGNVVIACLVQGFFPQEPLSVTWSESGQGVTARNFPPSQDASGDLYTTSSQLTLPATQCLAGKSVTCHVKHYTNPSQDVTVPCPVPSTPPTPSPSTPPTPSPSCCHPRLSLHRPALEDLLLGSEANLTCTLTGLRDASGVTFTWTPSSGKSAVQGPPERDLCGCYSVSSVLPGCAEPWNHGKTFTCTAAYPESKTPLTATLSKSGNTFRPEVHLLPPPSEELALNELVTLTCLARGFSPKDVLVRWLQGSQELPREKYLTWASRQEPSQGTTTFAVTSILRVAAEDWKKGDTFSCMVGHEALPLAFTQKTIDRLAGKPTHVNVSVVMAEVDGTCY
UniProt P00738, residues 19-406: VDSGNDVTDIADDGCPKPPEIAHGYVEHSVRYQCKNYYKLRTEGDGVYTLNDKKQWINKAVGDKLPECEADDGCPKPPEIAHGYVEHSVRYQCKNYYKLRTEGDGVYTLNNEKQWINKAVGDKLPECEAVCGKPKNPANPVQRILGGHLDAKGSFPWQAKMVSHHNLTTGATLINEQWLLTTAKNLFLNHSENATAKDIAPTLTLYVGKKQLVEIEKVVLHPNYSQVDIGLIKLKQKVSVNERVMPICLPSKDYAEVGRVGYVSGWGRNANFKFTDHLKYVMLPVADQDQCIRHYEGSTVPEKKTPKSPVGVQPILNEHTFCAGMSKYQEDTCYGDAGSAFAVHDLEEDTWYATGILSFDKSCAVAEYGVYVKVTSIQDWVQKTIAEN
UniProt P04406: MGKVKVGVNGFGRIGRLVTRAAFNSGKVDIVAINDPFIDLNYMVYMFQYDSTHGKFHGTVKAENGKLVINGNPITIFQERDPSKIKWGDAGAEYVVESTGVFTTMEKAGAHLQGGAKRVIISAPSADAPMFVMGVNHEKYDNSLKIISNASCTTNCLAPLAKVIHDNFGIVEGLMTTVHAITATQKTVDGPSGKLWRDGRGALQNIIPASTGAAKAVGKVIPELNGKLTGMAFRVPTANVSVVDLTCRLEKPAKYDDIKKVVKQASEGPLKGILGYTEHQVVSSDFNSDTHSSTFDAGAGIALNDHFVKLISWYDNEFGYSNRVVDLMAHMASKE

molecular target: T1, Crystallin Alpha B (CRYAB) (human (endogenous in BMSCs)) (UniProt P02511); test: affinity purification with mass spectrometry; IP-MS of CRYAB in BMSCs; IgG control; hits selected by fold change (Intensity BMSC-IP/Intensity BMSC-IgG) > 10
T1 sequence: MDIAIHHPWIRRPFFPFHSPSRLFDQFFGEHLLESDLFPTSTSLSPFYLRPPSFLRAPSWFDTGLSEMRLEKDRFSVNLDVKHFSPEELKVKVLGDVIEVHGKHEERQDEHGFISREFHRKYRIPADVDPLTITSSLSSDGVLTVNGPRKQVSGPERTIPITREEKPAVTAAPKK

Row | Substance | binding
1 | PIGR (from UniProt P01833 19-764) | binds
2 | ferritin heavy chain 1 (FTH1) (from UniProt P02794 1-183) | binds
3 | DSP (from UniProt P15924 1-2871) | binds
4 | SNC73 (from UniProt Q9UP60 1-384) | binds
5 | LTF (human (endogenous in BMSCs)) | binds
6 | HP (from UniProt P00738 19-406) | binds
7 | GAPDH (from UniProt P04406 1-335) | binds

No constants are given. Whether binding was seen depends on the method and setting. Binding seen in cells or lysates may run through a third protein. These calls come from enrichment with a bait or labelling near it, and not all partners need be listed.
